Experimental data: PubChem BioAssay AID602196 (INSERM, 2012)

- Purpose: 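Modifiers of cisplatin sensitivity in A549 cells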
- System: human A549 lung cancer cells
- Knock-down reagent: siRNA pair against human genes
- Time to read-out: 48 h transfection before cisplatin; time from cisplatin to read-out not stated
- Treatment: cisplatin at a dose killing half of control-siRNA cells; exact dose and duration not given
- Measurement: 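Shift in cisplatin death relative to control siRNA, from -50 (all cells die) to +50 (no cells die); siRNAs harmful on their own scored 0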
- Reading the numbers: two-siRNA summed score (-2 to +2): higher = both siRNAs protect from cisplatin killing; -2 means both sensitise; mean protection from cisplatin (shift in death) and protection from cisplatin (shift in death), siRNA C and protection from cisplatin (shift in death), siRNA D: higher = protection from cisplatin killing
- Call rule: 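siRNAs harmful alone (LDH or WST-1) get 0; others get +1 for less and -1 for more cisplatin killing; genes are active when the two siRNAs give the same sign, summing to ±2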
- Calls: active = both siRNAs shift cisplatin killing the same way; inactive = no consistent shift, or siRNA harmful alone
The whole screen tested about 23,000 reagents; below is a part drawn at random. Of all reagents, 455 (2%) were called active. 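Active includes both protection and sensitisation; some change values fall well beyond the stated -50 to +50 range.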 Entries without a mark were called inactive. Reagents against one gene are numbered here. Not stated in the record: the amount of reagent.

gene knocked down | reagent no. | two-siRNA summed score (-2 to +2) | mean protection from cisplatin (shift in death) (%) | protection from cisplatin (shift in death), siRNA C (%) | protection from cisplatin (shift in death), siRNA D (%)
SCNM1 | 1 | 0 | 6.1 | -2.8 | 14.9
PLCG1 | 1 | 0 | 2.3 | -2 | 6.6
LOC440488 | 1 | 1 | 14 | 16.6 | 11.4
GRAMD2B | 1 | 0 | 0.2 | -8.7 | 9.1
FKTN | 1 | 0 | 3.2 | 1.5 | 5
LOC401577 | 1 | 0 | 6.2 | 9.8 | 2.7
STARD10 | 1 | 1 | 16.4 | 8 | 24.8
TBL1XR1 | 1 | 0 | 5.5 | 21.1 | -10
ATP10D | 1 | 1 | 11.5 | 21 | 2
CNTF | 1 | -1 | -5.8 | -8.1 | -3.6
AGPAT4-IT1 | 1 | 0 | -19.2 | -28.5 | -9.8
TRIM74 | 1 | 0 | 6.2 | 1.1 | 11.4
GAL3ST2 | 1 | 0 | -3 | -2.9 | -3.1
POGLUT2 | 1 | 0 | -11.6 | -14.3 | -8.9
CACNA1H | 1 | -2 (active) | -24.8 | -20.6 | -29.1
BHMT | 1 | 0 | 6.5 | 2 | 10.9
LOC389223 | 1 | 1 | 9.2 | -2 | 20.4
VIPR2 | 1 | 1 | -5.6 | 13.4 | -24.5
GJA8 | 1 | 0 | 12.3 | 4 | 20.6
GATD3 | 1 | 0 | -8.2 | -1.9 | -14.4
RBM11 | 1 | 0 | 8.5 | 11.8 | 5.2
IP6K1 | 1 | -1 | -5 | -13.5 | 3.6
CSF1R | 1 | -1 | -7 | -1.8 | -12.3
CES3 | 1 | 1 | 11.7 | 21.7 | 1.8
YBX2 | 1 | 0 | -2.5 | -3.8 | -1.1
PPP1R8 | 1 | 0 | -7 | -3.2 | -10.8
UBAP1 | 1 | 0 | -7.3 | -1.1 | -13.4
NF2 | 1 | 0 | -3.1 | -8.7 | 2.6
MBD1 | 1 | -1 | -19.1 | 4.7 | -42.8
ZFYVE16 | 1 | 0 | -3 | -8.9 | 2.9
DNMT3B | 1 | 0 | 2.1 | 13 | -8.8

Reformatted: entries from further up.
gene knocked down,reagent no.,two-siRNA summed score (-2 to +2),mean protection from cisplatin (shift in death) (%),"protection from cisplatin (shift in death), siRNA C (%)","protection from cisplatin (shift in death), siRNA D (%)"
GATD3,1,0,-8.2,-1.9,-14.4
RBM11,1,0,8.5,11.8,5.2
IP6K1,1,-1,-5,-13.5,3.6
CSF1R,1,-1,-7,-1.8,-12.3
CES3,1,1,11.7,21.7,1.8
YBX2,1,0,-2.5,-3.8,-1.1
PPP1R8,1,0,-7,-3.2,-10.8
UBAP1,1,0,-7.3,-1.1,-13.4
NF2,1,0,-3.1,-8.7,2.6

The listing continues:
gene knocked down | reagent no. | two-siRNA summed score (-2 to +2) | mean protection from cisplatin (shift in death) (%) | protection from cisplatin (shift in death), siRNA C (%) | protection from cisplatin (shift in death), siRNA D (%)
TSHZ1 | 1 | 0 | -3.1 | 6.5 | -12.8
SAMD7 | 1 | 0 | 1.1 | -2.7 | 4.9
FTHL17 | 1 | 0 | -0.1 | 2.1 | -2.3
WDR4 | 1 | 0 | 1.6 | 0 | 3.3
FABP3 | 1 | 0 | -0.7 | 6.5 | -7.9
ZNF273 | 1 | 1 | 9.1 | 0.8 | 17.4
ZNF273 | 2 | 1 | 13.2 | 14.4 | 11.9
SNRPC | 1 | -1 | -2.4 | -14.1 | 9.3
TXNDC17 | 1 | 1 | 10.9 | 3.2 | 18.7
PLPP2 | 1 | 1 | 9.4 | 2.5 | 16.3
KLHL35 | 1 | 0 | -2.9 | 3.9 | -9.7
EWSAT1 | 1 | 0 | -1.5 | 5 | -8
LOC389773 | 1 | 0 | 8.3 | 1.4 | 15.2
KLK8 | 1 | 0 | -12.6 | -17.3 | -7.9
LINC01697 | 1 | 1 | 10.2 | 10 | 10.4
MACROH2A1 | 1 | 0 | 4.2 | -3 | 11.4
LOC387717 | 1 | 1 | 4.2 | 10.6 | -2.3
STK32A | 1 | 0 | 5.8 | 9.1 | 2.6
LIMCH1 | 1 | 0 | 3.9 | 1.4 | 6.5
IRF7 | 1 | 0 | -0.8 | -4.7 | 3
KRTAP4-5 | 1 | 0 | 3.2 | -2.3 | 8.7
LOC400690 | 1 | 0 | -1.1 | -7.1 | 4.9
SNRPD3 | 1 | 0 | -3.4 | -8.9 | 2
LOC442512 | 1 | 0 | 15.1 | 20.9 | 9.3
NMNAT2 | 1 | -1 | -13.2 | -29.8 | 3.5
LOC442682 | 1 | 0 | -1.9 | -3 | -0.9
